Experimental data reported in patent US20090275639A1.
These are yes or no findings as the source states them, for the method shown. For some assays here: In cells and extracts the contact can be indirect. Some binding calls cover weakened binding; strength is not graded here.

Chains of the proteins cited; added tags and fusions are not shown. Lines headed by an entry give the natural chain unless they say otherwise; changes in a name come on top.
UniProt Q9Y297: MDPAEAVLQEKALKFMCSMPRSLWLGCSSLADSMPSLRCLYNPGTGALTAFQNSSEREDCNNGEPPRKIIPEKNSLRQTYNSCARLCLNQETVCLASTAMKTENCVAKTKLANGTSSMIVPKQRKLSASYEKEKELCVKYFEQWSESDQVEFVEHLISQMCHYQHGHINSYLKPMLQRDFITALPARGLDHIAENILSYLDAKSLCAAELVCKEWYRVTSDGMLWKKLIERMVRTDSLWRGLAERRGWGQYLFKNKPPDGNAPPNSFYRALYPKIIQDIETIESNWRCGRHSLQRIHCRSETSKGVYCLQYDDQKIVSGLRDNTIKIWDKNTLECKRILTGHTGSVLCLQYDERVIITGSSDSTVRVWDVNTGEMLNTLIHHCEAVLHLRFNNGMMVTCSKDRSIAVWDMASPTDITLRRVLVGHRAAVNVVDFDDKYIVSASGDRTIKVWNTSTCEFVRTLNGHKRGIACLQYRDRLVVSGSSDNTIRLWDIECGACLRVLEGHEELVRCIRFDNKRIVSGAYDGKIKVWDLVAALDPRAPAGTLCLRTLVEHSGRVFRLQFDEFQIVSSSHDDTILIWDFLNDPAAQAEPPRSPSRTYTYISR

How the values were obtained:
[1] = molecular target: FLAG-tagged β-TrCP1 (human) (UniProt Q9Y297); assay: anti-FLAG immunoprecipitation of FLAG-tagged F-box proteins from 293T cells, Western blot for USP47
[2] = molecular target: FLAG-tagged β-TrCP1 (human) (UniProt Q9Y297); assay: co-immunoprecipitation and Western blot

binding [1]: binds | binding [2]: binds
B1: USP47 (ubiquitin specific protease 47) (enzyme)
chain: MVPGEENQLVPKEAPLDHTSDKSLLDANFEPGKKNFLHLTDKDGEQPQILLEDSSAGEDSVHDRFIGPLPREGSGGSTSDYVSQSYSYSSILNKSETGYVGLVNQAMTCYLNSLLQTLFMTPEFRNALYKWEFEESEEDPVTSIPYQLQRLFVLLQTSKKRAIETTDVTRSFGWDSSEAWQQHDVQELCRVMFDALEQKWKQTEQADLINELYQGKLKDYVRCLECGYEGWRIDTYLDIPLVIRPYGSSQAFASVEEALHAFIQPEILDGPNQYFCERCKKKCDARKGLRFLHFPYLLTLQLKRFDFDYTTMHRIKLNDRMTFPEELDMSTFIDVEDEKSPQTESCTDSGAENEGSCHSDQMSNDFSNDDGVDEGICLETNSGTEKISKSGLEKNSLIYELFSVMVHSGSAAGGHYYACIKSFSDEQWYSFNDQHVSRITQEDIKKTHGGSSGSRGYYSSAFASSTNAYMLIYRLKDPARNAKFLEVDEYPEHIKNLVQKERELEEQEKRQREIERNTCKIKLFCLHPTKQVMMENKLEVHKDKTLKEAVEMAYKMMDLEEVIPLDCCRLVKYDEFHDYLERSYEGEEDTPMGLLLGGVKSTYMFDLLLETRKPDQVFQSYKPGEVMVKVHVVDLKAESVAAPITVRAYLNQTVTEFKQLISKAIHLPAETMRIVLERCYNDLRLLSVSSKTLKAEGFFRSNKVFVESSETLDYQMAFADSHLWKLLDRHANTIRLFVLLPEQSPVSYSKRTAYQKAGGDSGNVDDDCERVKGPVGSLKSVEAILEESTEKLKSLSLQQQQDGDNGDSSKSTETSDFENIESPLNERDSSASVDNRELEQHIQTSDPENFQSEERSDSDVNNDRSTSSVDSDILSSSHSSDTLCNADNAQIPLANGLDSHSITSSRRTKANEGKKETWDTAEEDSGTDSEYDESGKSRGEMQYMYFKAEPYAADEGSGEGHKWLMVHVDKRITLAAFKQHLEPFVGVLSSHFKVFRVYASNQEFESVRLNETLSSFSDDNKITIRLGRALKKGEYRVKVYQLLVNEQEPCKFLLDAVFAKGMTVRQSKEELIPQLREQCGLELSIDRFRLRKKTWKNPGTVFLDYHIYEEDINISSNWEVFLEVLDGVEKMKSMSQLAVLSRRWKPSEMKLDPFQEVVLESSSVDELREKLSEISGIPLDDIEFAKGRGTFPCDISVLDIHQDLDWNPKVSTLNVWPLYICDDGAVIFYRDKTEELMELTDEQRNELMKKESSRLQKTGHRVTYSPRKEKALKIYLDGAPNKDLTQD
